± gives the standard deviation of the averaged measurements. The list shows a part of the results.
Molecular target: T1, UniProt Q96JY6 and related entries
T1 sequence (whole entry): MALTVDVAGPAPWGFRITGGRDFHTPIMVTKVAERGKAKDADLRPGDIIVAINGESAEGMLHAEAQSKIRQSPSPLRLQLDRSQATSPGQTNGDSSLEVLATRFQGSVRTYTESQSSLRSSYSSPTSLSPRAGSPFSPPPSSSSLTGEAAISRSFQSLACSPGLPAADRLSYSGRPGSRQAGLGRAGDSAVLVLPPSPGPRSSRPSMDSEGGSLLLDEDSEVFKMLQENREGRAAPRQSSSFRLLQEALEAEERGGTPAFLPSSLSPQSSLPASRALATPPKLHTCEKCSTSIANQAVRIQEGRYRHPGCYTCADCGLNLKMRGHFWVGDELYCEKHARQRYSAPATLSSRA
Assay: NP40-soluble protein abundance relative to vehicle (solubility fold change) (ratio); higher = more soluble protein in presence of GTP
Experimental: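 Solubility proteome profiling in Jurkat crude lysate. Lysate was treated with Mg-GTP (0.1-10 mM) for 10 min at room temperature and 3 min at 37 °C, then solubilised with 0.8% NP40 and benzonase, followed by ultracentrifugation. Proteins were quantified by TMT10 LC-MS/MS; the value is the NP40-soluble abundance relative to the NP40-processed vehicle, from 3 independent experiments.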

With `Nc1nc2c(ncn2[C@@H]2O[C@H](COP(=O)(O)OP(=O)(O)OP(=O)(O)O)[C@@H](O)[C@H]2O)c(=O)[nH]1` [guanosine triphosphate] the NP40-soluble protein abundance (concentration: 0.1mM) was 0.99 ± 0.071, the NP40-soluble protein abundance (concentration: 0.5mM) was 0.996 ± 0.042 and the NP40-soluble protein abundance (concentration: 1mM) was 1.03 ± 0.074. It also gave an NP40-soluble protein abundance (concentration: 2mM) of 1.02 ± 0.057, an NP40-soluble protein abundance (concentration: 4mM) of 0.981 ± 0.089 and an NP40-soluble protein abundance (concentration: 6mM) of 1.02 ± 0.09. For the same compound, the NP40-soluble protein abundance (concentration: 8mM) was 1.03 ± 0.081 and the NP40-soluble protein abundance (concentration: 10mM) was 1.03 ± 0.015.

Source: the supplement of paper PMC6411743
